# This is one part of the list. These are further read-outs of the screen, such as a control signal, another cell line or another target. No call is given for them. Most of these compounds were active or inconclusive in the main read-out, so they are no random draw. Potencies come from curve fits of mixed quality, noted in brackets.
# Test: qHTS Assay to Find Inhibitors of Chronic Active B-Cell Receptor Signaling
# Conditions: ABC-DLBCL IkBa-CBG/CBR reporter, luminescence ratio (green luciferase fused to IkBa over red control in TMD8 lymphoma cells), 4 h
# In short: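 Cell line TMD8 (human ABC DLBCL), stably expressing tet-inducible CBG68-IkBa fusion and CBR; IMDM/0.5% FBS; cpd up to 46 uM; dox induction, 4 h, 37C/5% CO2; dual luminescence; green/red ratio; MG132 control.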
# [1] = measured here: CBR red luminescence, cell number
SMILES,AC50 [1],AC50 (measured here: IkBa-CBG green luminescence)
O=C(Nc1cccc(Cl)c1)c1cc(S(=O)(=O)NCCc2ccc(Cl)cc2)ccc1F,"29.1 µM [falling, single point]","16.4 µM [rising, partial curve, poor fit]"
c1ccc2c(c1)ccc1nnc(-c3ccc4c(c3)OCO4)n12,"2.59 µM [rising, full curve]",–
O=C(O)C1CCCN(S(=O)(=O)c2ccc3c(c2)OCCO3)C1 (stereo not drawn),"35.5 µM [rising, single point]",–
CCOC(=O)c1[nH]c(C)c(/C(O)=C2\C(=O)C(=O)N(CCN(C)C)C2c2cccc(OC)c2OC)c1C (stereo not drawn),"10 µM [rising, partial curve, poor fit]",–
COc1ccc(Cl)cc1NC(=O)CN(C)C(=O)c1n[nH]c2ccccc12,"23.1 µM [falling, single point]",–
Nc1ccc(C(=O)N/N=C/c2cn(Cc3cccc(F)c3)c3ccccc23)cc1,"12.6 µM [falling, partial curve]",–
Cc1ccc(C(=O)NCCOc2cccc3cccnc23)cc1Cl,"2.82 µM [rising, full curve, poor fit]",–
CCOC(=O)C1CCCN(C(=O)c2cc(-c3ccccc3)on2)C1 (stereo not drawn),"6.51 µM [rising, single point]",–
CCOc1ccc(OCC)c(NC(=O)CN(C)S(=O)(=O)c2cnc[nH]2)c1,"5.62 µM [falling, single point]",–
COc1ccc(OC)c2sc(NC(=O)CCSc3ccccc3)nc12,"0.58 µM [falling, full curve]",–
COc1ccccc1/C=C/C(=O)N1CCN(S(=O)(=O)c2cc(C)ccc2C)CC1,"16.4 µM [falling, single point]",–
Cc1ccc(-n2c(O)c(/C=C3/C(c4ccccc4)=Nc4ccccc43)c(=O)[nH]c2=O)cc1,"29.1 µM [falling, single point]",–
O=C(O)Cn1c(=O)cnc2ccccc21,"29.1 µM [rising, single point]",–
CN(CC(=O)Nc1ccccc1Cl)C(=O)c1cccc(S(=O)(=O)N2CCN(c3ccc(F)cc3)CC2)c1,"12.6 µM [rising, partial curve, poor fit]",–
Cc1onc(-c2ccccc2Cl)c1C(=O)Nc1nnc(-c2ccc(Br)cc2)s1,"0.291 µM [falling, full curve]",–
CCOC(=O)c1cc(-c2ccccc2)n(CC(=O)Nc2ccc(OC)cc2OC)c1C,"0.398 µM [rising, full curve]",–
Cn1nnc2cc(NC(=O)Nc3cccc(Cl)c3)ccc21,"0.891 µM [rising, full curve, poor fit]",–

# 2 compounds picked at random from those above:
SMILES,AC50 [1],AC50 (measured here: IkBa-CBG green luminescence)
CCOC(=O)c1[nH]c(C)c(/C(O)=C2\C(=O)C(=O)N(CCN(C)C)C2c2cccc(OC)c2OC)c1C (stereo not drawn),"10 µM [rising, partial curve, poor fit]",–
CCOC(=O)C1CCCN(C(=O)c2cc(-c3ccccc3)on2)C1 (stereo not drawn),"6.51 µM [rising, single point]",–
